Reference: PubChem BioAssay AID504467 (National Center for Advancing Translational Sciences (NCATS), 2011)
Values joined by “and” are separate entries in the source; they are usually repeats but may differ in a detail not shown here. Equal entries are not always repeated. The campaign covered roughly 330,000 compounds. About 7,700 (2.3%) were called active. The shares of active, inactive and inconclusive entries below differ from those in the screen. Calls come from the whole dose curve; as a rule, active = well fitted inhibition curve with a large enough effect; inconclusive = small, poorly fitted or top-dose-only effect, or effect the other way; inactive = flat fitted curve, though single readings scatter. A potency beside an inconclusive call is a rough fit, not a confirmed value.

Experiment: qHTS screen for small molecules that inhibit ELG1-dependent DNA repair in human embryonic kidney (HEK293T) cells expressing luciferase-tagged ELG1; note: nearly all actives have a fitted effect of over 55% in size
Conditions: HEK293T ELG1-luciferase reporter, luminescence, 16 h, DNA damage induced by 5-fluorouridine; series mostly up to 46.1 µM
How it was run: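 Reporter activity after DNA damage by 5-fluorouridine is monitored. Compound-treated cells incubate 16 hr at 37 °C, then ONE-Glo is added for 30 min before luminescence reading.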
Potency is the fitted concentration of half-maximal effect.

Row | Compound | Potency
1 | Cc1nn(CC(=O)NC(C)CCc2ccccc2)c(=O)c2nn(-c3ccccc3)c(C)c12 (stereo unspecified) | inconclusive: 7.3 µM [inhibitor, partial curve]
2 | CCCNc1c(F)c(F)c2c(C)c3ccccc3nc2c1F | inconclusive: 23.1 µM [activator, partial curve]
3 | C#CCOC(=O)CCCNc1ccc([N+](=O)[O-])cc1[N+](=O)[O-] | inactive
4 | COc1ccc(S(=O)(=O)N(CC(=O)NCc2ccncc2)c2cc(C)cc(C)c2)cc1OC | inactive
5 | CC1=NN(c2ccc([N+](=O)[O-])cc2)C(=O)/C1=C\N(C)C | inconclusive: 20.6 µM [activator, single point]
6 | COc1cccc(NC(=O)C(=O)NCCC2CCCCN2S(=O)(=O)c2ccccc2)c1 (stereo unspecified) | inconclusive: 4.11 µM [activator, full curve]
7 | C=CCSc1nc2c(cnn2-c2ccccc2)c(=O)n1N | inconclusive: 8.2 µM [activator, partial curve]
8 | O=C(/C=C/Nc1ccc(S(=O)(=O)Nc2ncccn2)cc1)c1ccc2ccccc2c1 | inconclusive: 29.1 µM [activator, single point]
9 | CCOc1ccc(NC(=O)C2CC(=O)N3CCCN=C3S2)cc1 (stereo unspecified) | inconclusive: 16.4 µM [activator, partial curve, poor fit]
10 | O=C(Nc1ccc(OCC(=O)N2CCOCC2)cc1)Nc1cccc2ccccc12 | inactive
11 | CNC(=O)C1CC(=O)N(c2ccc(OCC(=O)N3CCCC3)cc2)C1 (stereo unspecified) | inconclusive: 29.1 µM [activator, single point]
12 | COc1ccc(S(=O)(=O)N2CCCC2CNC(=O)C(=O)NCc2ccccc2Cl)cc1 (stereo unspecified) | inconclusive: 13 µM [inhibitor, single point]
13 | CC(=O)CSc1nc2c(c(=O)[nH]c(=O)n2C)n1Cc1cccc(Br)c1 | inconclusive: 16.4 µM [activator, partial curve, poor fit]
14 | COc1ccc(C(=O)Nc2oc(-c3ccccc3)c(-c3ccccc3)c2C#N)cc1 | inconclusive: 14.6 µM [inhibitor, partial curve]
15 | COC(=O)c1ccc(C(=O)OC)c(NC(=S)N2CC(C)CC(C)C2)c1 (stereo unspecified) | inactive
16 | O=C(Nc1cc(-c2ccccc2)[nH]n1)c1ccc(Cl)cc1 | inconclusive: 29.1 µM [activator, partial curve] and inconclusive: 18.3 µM [activator, partial curve]
17 | Cc1c(C(C)(C)C)sc(=NC(=O)c2ccccc2O)n1C | inconclusive: 2.59 µM [activator, partial curve]
18 | CCC(Sc1nc(C)cc(=O)[nH]1)C(=O)Nc1nc2c(s1)CCCC2 (stereo unspecified) | inactive
19 | CCN1C(=O)C(CC(=O)Nc2ccc(F)cc2)N(Cc2cccs2)C1=S (stereo unspecified) | inconclusive: 29.1 µM [inhibitor, single point]
20 | COCC1CCCN(Cc2nc(-c3ccc4c(c3)OCO4)no2)C1 (stereo unspecified) | inconclusive: 18.3 µM [activator, single point]
21 | CC(C)(C)SCCNC(=O)/C=C/c1ccccc1 | inconclusive: 13 µM [activator, partial curve]
22 | Oc1cccnc1SCc1ccccc1 | inconclusive: 17.8 µM [activator, single point]

Row | Compound | Potency
23 | Cc1ccc(N(CC(=O)NCc2ccc3c(c2)OCO3)S(C)(=O)=O)cc1 | inconclusive: 14.6 µM [activator, single point]
24 | O=C(O)c1cccc(NC(=O)c2cn(-c3ccccc3)nc2-c2ccc([N+](=O)[O-])cc2)c1 | inactive
25 | O=c1c2cc(Br)ccc2[nH]c(=S)n1Cc1ccccc1 | inconclusive: 18.3 µM [inhibitor, partial curve, poor fit]
26 | Cc1ccc(SCc2cn3cccnc3n2)cc1 | inconclusive: 23.1 µM [activator, partial curve]
27 | Cc1cc(C)c(COc2ccc(/C=N/n3c(C)n[nH]c3=S)cc2)c(C)c1 | inactive
28 | CCN(CCCNC(=O)COc1cc(=O)n(CC)c2ccccc12)Cc1ccccc1 | inconclusive: 20.6 µM [activator, partial curve]
29 | C/C=C(\C)C(=O)Nc1cccc(C2=NOC3(C2)C[C@H](C(N)=O)N(C(=O)CC#N)C3)c1 (stereo partly specified) | inconclusive: 0.164 µM [inhibitor, full curve, poor fit]
30 | COc1ccccc1N(C)S(=O)(=O)c1ccc(C(=O)Nc2nnc(C)s2)cc1 | inactive
31 | CCN1CCN(C(C(=O)NC2CCCC2)c2cc3c(cc2[N+](=O)[O-])OCO3)CC1 (stereo unspecified) | inconclusive: 29.1 µM [activator, single point]
32 | CCN(CC)C(=O)c1cc(-c2ccc(Br)cc2)on1 | inconclusive: 16.4 µM [activator, partial curve]
33 | Cc1ccccc1C1C(C#N)=C(N)N(N(C)C)C2=C1C(=O)CC(C)(C)C2 (stereo unspecified) | inactive
34 | Cc1ccc(NC(=O)c2cc(C)no2)cc1 | inconclusive: 14.6 µM [activator, partial curve]
35 | O=c1c2ccccc2ncn1-c1ccc([N+](=O)[O-])cc1Cl | inactive
36 | CCN(Cc1ccccc1)C(=O)c1oc2ccc(S(=O)(=O)N3CCOCC3)cc2c1C | inconclusive: 29.1 µM [inhibitor, single point]
37 | CN(C)/C=C1\N=C(c2cccnc2Oc2ccc(Cl)cc2)OC1=O | inconclusive: 18.3 µM [inhibitor, partial curve, poor fit]
38 | Clc1ccc2nc(-c3ccc(Cl)nc3)[nH]c2c1 | inconclusive: 7.3 µM [activator, partial curve]
39 | CSc1ccc(CNc2ccc(C)c(C)c2)cc1 | inconclusive: 18.4 µM [activator, partial curve]
40 | COc1ccc(OC)c(NC(=O)NC2CCCCCCC2)c1 | inactive
41 | O=C(Nc1ccccc1O)C(c1ccccc1)c1ccccc1 | active: 4.61 µM
42 | O=C(c1cnn(-c2ccccc2)c1)c1cc(Br)ccc1O | inactive
43 | COc1ccc(F)cc1CN1CCN(c2cc(C)nc3c4c(C)cc(C)nc4nn23)CC1 | inconclusive: 18.4 µM [inhibitor, single point]
44 | Cc1nnc(NC(=O)CN2CCN(Cc3ccccc3Cl)CC2)s1 | inactive

Exported tab-delimited: part of the list above.
Row	Compound	Potency
24	O=C(O)c1cccc(NC(=O)c2cn(-c3ccccc3)nc2-c2ccc([N+](=O)[O-])cc2)c1	inactive
25	O=c1c2cc(Br)ccc2[nH]c(=S)n1Cc1ccccc1	inconclusive: 18.3 µM [inhibitor, partial curve, poor fit]
26	Cc1ccc(SCc2cn3cccnc3n2)cc1	inconclusive: 23.1 µM [activator, partial curve]
27	Cc1cc(C)c(COc2ccc(/C=N/n3c(C)n[nH]c3=S)cc2)c(C)c1	inactive

The list goes on:

Row | Compound | Potency
45 | O=C1Nc2ccc([N+](=O)[O-])cc2OC1CCN1CCN(c2ccccc2)CC1 (stereo unspecified) | inconclusive: 29.1 µM [inhibitor, partial curve, poor fit]
46 | O=c1[nH]c(C2CCN(S(=O)(=O)c3ccccc3)CC2)nc2c1nnn2Cc1cccc(Cl)c1 | inactive
47 | Cc1ccc(C)c(S(=O)(=O)Nc2ccc(O)c3ccccc23)c1 | inconclusive: 29.1 µM [inhibitor, single point]
48 | Cc1sc2ncnc(N3CCC(C(=O)NNC(=O)COc4cccc(C(F)(F)F)c4)CC3)c2c1C | inconclusive: 29.1 µM [inhibitor, single point]
49 | O=C(Nc1ccccc1)c1cccc(N2CCCC2=O)c1 | inconclusive: 6.51 µM [activator, partial curve]
50 | COc1ccc(NC(=O)Nc2ccc3c(c2)C(=O)N([C@@H](C)CO)C[C@@H](C)[C@@H](CN(C)CC2CCCCC2)O3)cc1 | inconclusive: 18.3 µM [activator, partial curve, poor fit]
51 | Cc1cc(C)n(-c2cc(N3CCN(S(=O)(=O)c4ccc(C)c(C)c4)CC3)ccc2[N+](=O)[O-])n1 | inconclusive: 13 µM [inhibitor, partial curve, poor fit]
52 | COc1cccc(NC(=O)NCc2ccc(F)cc2)c1 | inconclusive: 18.3 µM [activator, partial curve]
53 | COc1ccccc1OCCNC(=O)c1ccc(C)o1 | inconclusive: 10.3 µM [activator, single point]
54 | O=C(Nc1nc(-c2cccnc2)cs1)c1ccc(S(=O)(=O)N2CCOCC2)cc1 | inconclusive: 1.84 µM [inhibitor, partial curve, poor fit]
55 | Cc1ccc(-n2cc(CNCCn3nc(C)cc3C)c(-c3ccc(F)cc3)n2)cc1 | inconclusive: 29.1 µM [inhibitor, single point]
56 | CCOC(=O)N1CCC(N2Cc3cccc(C(=O)Nc4ccc(OC)c(OC)c4)c3C2=O)CC1 | inconclusive: 6.51 µM [inhibitor, full curve, poor fit]
57 | CCCn1cnc2cc(NCc3cccc(OC)c3)ccc21 | inconclusive: 9.2 µM [activator, partial curve]
58 | CCOc1ccc(C2/C(=C(/O)c3ccc(S(=O)(=O)N4CCCCC4)cc3)C(=O)C(=O)N2CCCOC)cc1OC (stereo unspecified) | inactive
59 | CCc1ccccc1S(=O)(=O)Cc1ccc(C(=O)NCc2ccc3c(c2)OCO3)o1 | inconclusive: 16.4 µM [inhibitor, single point]
60 | CC1(C)Oc2ccc3ccc(=O)oc3c2-c2cn[nH]c21 | inconclusive: 11.2 µM [activator, partial curve, poor fit]
61 | Cn1c2ccc(F)cc2c2ncn(CCN3CCOCC3)c(=O)c21 | inconclusive: 11.6 µM [activator, partial curve, poor fit]
62 | COCCN(C(=S)Nc1cc(C)cc(C)c1)C(C)c1cccnc1 (stereo unspecified) | inconclusive: 20.6 µM [activator, partial curve, poor fit]
63 | CC1(C)CC(=O)C2=C(C1)NC(=S)C(C#N)C21CCCCC1 (stereo unspecified) | inactive
64 | O=C(CSc1nc2ccccc2nc1N1CCCC1)Nc1ccc(F)cc1 | inactive
65 | CCN1CCN(C(=O)CN2C(=O)c3ccccc3S2(=O)=O)CC1 | inconclusive: 8.2 µM [activator, partial curve]
66 | Cc1nn(-c2ccc(F)cc2)c2nc(N)c(C#N)c(-c3cccs3)c12 | inconclusive: 20.6 µM [inhibitor, single point]
